“Also recorded” adds a separate entry of the source. At least one structure is not confirmed: it was looked up by name or label, or the drawing left a doubt.
Columns and labels:
[1] = biological target: T1, deaminase TM0936 (Thermotoga maritima, UniProt Q9X034); test: Deamination by coupling enzyme TM0936; type: biochemical; settings: for deamination rate: 4 μM TM0936, 50 mM phosphate
T1 construct: polyhistidine; made in house; host or cells: bacteria
T1 sequence (Q9X034 1-406): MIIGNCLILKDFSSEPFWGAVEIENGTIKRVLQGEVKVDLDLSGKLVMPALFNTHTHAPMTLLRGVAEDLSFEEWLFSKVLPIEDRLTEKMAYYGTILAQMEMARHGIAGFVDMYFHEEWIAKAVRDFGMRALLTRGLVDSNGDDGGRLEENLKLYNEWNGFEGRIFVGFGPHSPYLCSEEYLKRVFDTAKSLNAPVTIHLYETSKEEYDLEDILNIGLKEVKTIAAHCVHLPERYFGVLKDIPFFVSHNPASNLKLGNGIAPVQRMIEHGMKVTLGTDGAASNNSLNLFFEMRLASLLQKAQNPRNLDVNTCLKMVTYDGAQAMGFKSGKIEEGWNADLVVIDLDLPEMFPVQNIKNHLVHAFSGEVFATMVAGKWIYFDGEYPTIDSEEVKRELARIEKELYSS
Protocol: FIG. 9A-9D. Sinefungin is a positive control compatible with the 1-Step EZ-MTase assay. (A) MTAN-based assays catabolize the methyltransferase inhibitor sinefungin (SIN). […] (C) pH-dependence of the reaction between sinefungin and TM0936. […] (D) Inhibition of the sarcosine/dimethylglycine methyltransferase by sinefungin. […] The initial methyltransfer rates were recorded at 263 nm. Further analysis provided the inhibition constant Ki (1.8±0.4 μM).

The chains behind the UniProt entries cited, without tags or fusion partners. Where a name states a change or a piece, a line headed by the entry shows the natural chain unless it says otherwise.
UniProt Q57T48: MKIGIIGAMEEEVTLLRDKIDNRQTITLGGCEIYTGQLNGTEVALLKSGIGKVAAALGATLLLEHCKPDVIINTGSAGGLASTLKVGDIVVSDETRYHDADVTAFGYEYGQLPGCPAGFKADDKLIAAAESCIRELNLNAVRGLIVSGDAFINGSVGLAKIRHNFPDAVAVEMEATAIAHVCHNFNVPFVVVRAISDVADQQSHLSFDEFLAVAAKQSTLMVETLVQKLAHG

[2] = biological target: bacterial MTAN (Salmonella choleraesuis, UniProt Q57T48); test: Catabolism of sinefungin by MTAN (HPLC); type: biochemical, Salmonella enterica; settings: 1 μM MTAN, pH=6.80, one hour, 120 μM inhibitor

Nc1ncnc2c1ncn2[C@@H]1O[C@H](C[C@@H](N)CC[C@H](N)C(=O)O)[C@@H](O)[C@H]1O [sinefungin]
reactivity as TM0936 substrate [1]: moderate reactivity; also recorded: poor substrate | deamination rate ([1]; pH=8.00, 120 μM sinefungin): 760 nM/min | deamination rate ([1]; pH≤6.80, 120 μM sinefungin): 125 nM/min | catabolism by MTAN [2]: catabolizes sinefungin into adenine; also recorded: quantitatively converted into adenine

From patent US20230220443A1, “CHARACTERIZATION OF S-ADENOSYL-L-METHIONINE-CONSUMING ENZYMES WITH 1-STEP EZ-MTASE: A UNIVERSAL COUPLED-ASSAY” (ALBERT EINSTEIN COLLEGE OF MEDICINE, priority 2017, published 2023)
